# Among all 340,000 compounds or so, about 6,200 (1.8%) were called active. The inconclusive results got no clear call from the source; some entries with a clear call stand among them for comparison. The call rests on the fitted dose curve; in most records, active means well fitted activation curve with a large enough effect; inconclusive means small, poorly fitted or top-dose-only effect; inactive means no such curve, though single readings can be large or run the other way. Where the call is inconclusive, the potency comes from a doubtful curve fit.
# Test: A quantitative high throughput screen for small molecules that induce DNA re-replication in SW480 colon adenocarcinoma cells. Further: nearly all actives have a fitted effect of over 55% in size.
# Conditions: Hoechst DNA content imaging, 48 h; series mostly up to 46.1 µM
# Procedure, shortened: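 Image-based read-out: total Hoechst fluorescence of nuclei (405 nm excitation, 500-530 nm emission), with hits raising the fraction of high-intensity nuclei. SW480 colon cells incubated 48 hr with compounds at 37 C.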
# Potency means the concentration at half of the fitted maximal effect.
row,Structure (SMILES),Potency
1,COC(=O)c1ccccc1NC(=O)CN(c1ccc(OC)cc1)S(C)(=O)=O,"inconclusive: 16.4 µM [activator, single point]"
2,COc1ccc(C2C=C(Nc3ccccc3)C(=O)N2c2ccccc2)cc1OC (stereo not given),"inconclusive: 0.651 µM [activator, full curve]"
3,O=C(Nc1nc2ccc(S(=O)(=O)N3CCCCC3)cc2s1)C1CCCO1 (stereo not given),"inconclusive: 11.6 µM [activator, partial curve]"
4,COc1ccc(NC(=O)CC2C(=O)N(C)C(=S)N2Cc2cccs2)cc1 (stereo not given),inactive
5,O=C(CNC(=O)c1ccccc1F)N/N=C\C=C\c1ccccc1,inactive
6,COc1ccccc1C(=O)Nc1ccc2oc(-c3ccc(F)cc3)nc2c1,"inconclusive: 23.1 µM [activator, partial curve, poor fit]"
7,O=C(CC12CC3CC(CC(C3)C1)C2)N1CCCC1,"inconclusive: 29.1 µM [activator, single point]"
8,COc1ccccc1CNc1ncccn1,inactive
9,COc1ccccc1CC(=O)Nc1ccc2c(C)cc(=O)oc2c1,"inconclusive: 6.51 µM [activator, single point]"
10,CS(=O)(=O)c1ccc(Cl)c(NC(=O)COC(=O)c2cccc(S(=O)(=O)N3CCCC3)c2)c1,"inconclusive: 14.6 µM [activator, single point]"
11,CCn1c2ccccc2c2cc(Nc3cc(C)nc4ncnn34)ccc21,"inconclusive: 0.58 µM [activator, full curve, poor fit]"
12,O=C(Nc1cccc(O)c1)c1ccc([N+](=O)[O-])cc1Cl,"inconclusive: 2.91 µM [activator, single point]"
13,O=C(NC1CCCC1)c1ccc2c(c1)N(Cc1ccccc1)CCS2,inactive
14,O=C(Nc1cccc(Cl)c1)N1N=CCC1c1ccccc1 (stereo not given),"inconclusive: 29.1 µM [activator, single point]"
15,CCC(C)Sc1cccc(-c2nc3ccc(C)cn3c2NCc2ccccc2)c1 (stereo not given),"inconclusive: 16.4 µM [activator, single point]"
16,CC(C)CC(NC(=O)c1ccc(Cl)cc1)C(=O)OCC(=O)c1ccc2c(c1)NC(=O)CO2 (stereo not given),"inconclusive: 23.1 µM [activator, single point]"
17,Cc1ccc(-c2[nH]ncc2CNCCc2cnn(-c3ccccc3)c2)cc1C,"inconclusive: 23.1 µM [activator, single point]"
18,Cc1oc(-c2cccs2)nc1CN1CCN(CCC(C)C)C(CCO)C1 (stereo not given),"inconclusive: 23.1 µM [activator, single point]"
19,O=C1CCCN=C(Nc2ccc(F)c(Cl)c2)S1,"inconclusive: 29.1 µM [activator, single point]"
20,CN(C)CCCN(C(=O)c1ccc2c(c1)CCCC2)c1nc2cc3c(cc2s1)OCO3,"inconclusive: 29.1 µM [activator, single point]"
21,O=C(Nc1nc(-c2ccccn2)cs1)c1cccc(-n2cnnn2)c1,"inconclusive: 0.651 µM [activator, full curve, poor fit]"
22,O=C(Nc1ccc2c(c1)OCCO2)C1CC(c2ccc(F)cc2)=NO1 (stereo not given),"inconclusive: 29.1 µM [activator, single point]"
23,CCOc1ccc(N(Cc2cc3ccc(C)cc3[nH]c2=O)S(C)(=O)=O)cc1,"inconclusive: 23.1 µM [activator, single point]"
24,Oc1cccc(/C=N/Nc2cc(N3CCCC3)nc(N3CCCC3)n2)c1,"inconclusive: 18.4 µM [activator, single point]"

# Molecules above that contain an NH in an aromatic ring:
row,Structure (SMILES),Potency
17,Cc1ccc(-c2[nH]ncc2CNCCc2cnn(-c3ccccc3)c2)cc1C,"inconclusive: 23.1 µM [activator, single point]"
23,CCOc1ccc(N(Cc2cc3ccc(C)cc3[nH]c2=O)S(C)(=O)=O)cc1,"inconclusive: 23.1 µM [activator, single point]"

# Some of the entries so far, with bars between the fields.
row | Structure (SMILES) | Potency
12 | O=C(Nc1cccc(O)c1)c1ccc([N+](=O)[O-])cc1Cl | inconclusive: 2.91 µM [activator, single point]
23 | CCOc1ccc(N(Cc2cc3ccc(C)cc3[nH]c2=O)S(C)(=O)=O)cc1 | inconclusive: 23.1 µM [activator, single point]

# Following part

row,Structure (SMILES),Potency
1,Cc1ccc(S(=O)(=O)NC(CC(C)C)C(=O)NCCCn2nc(C)cc2C)cc1 (stereo not given),inactive
2,CC(C)OCCCNC(=S)Nc1ccc2nc3n(c(=O)c2c1)CCCCC3,inactive
3,Cc1cc(C)nc(N2CCCC(C(=O)NCCc3ccc(F)cc3)C2)n1 (stereo not given),inactive
4,c1ccc(C[C@H]2CNCCN2CCCCC2CCCCC2)cc1,"inconclusive: 23.1 µM [activator, partial curve, poor fit]"
5,CCCCOc1ccc(/C=C/C(=O)OCC(=O)N2CC(=O)Nc3ccccc32)cc1OCC,"inconclusive: 29.1 µM [activator, single point]"
6,COCCNC(=O)c1c[nH]c2ccc(S(=O)(=O)N3CCC4(CC3)OCCO4)cc2c1=O,"inconclusive: 13 µM [activator, partial curve, poor fit]"
7,CCOC(=O)N1CCN(c2ccnc3cc(Cl)ccc23)CC1,inactive
8,O=C(CC(NC(=O)c1ccccc1Cl)c1ccccc1)NCCc1ccc(Cl)cc1 (stereo not given),inactive
9,Cc1cccc(OCC(=O)NC(Cc2ccccc2)C(=O)O)c1 (stereo not given),inactive
10,Cc1ccc(NC(=O)N2C3CCCC2CC(NC(=O)C(C)(C)C)C3)cc1 (stereo not given),inactive
11,CCc1ccc(N=Nc2ccc(O)c3[nH]cnc23)cc1,"inconclusive: 29.1 µM [activator, single point]"
12,NC(=S)Nc1cc2ccccc2c2ccccc12,inactive
13,O=C(NCc1ccccc1)c1cccc(F)c1F,inactive
14,Cc1ccc(C(=O)O/N=C/c2ccc3c(c2)OCO3)cc1,inactive
15,COc1ccc(CNC(=O)CCS(=O)(=O)c2cc3c(cc2Cl)NC(=O)CO3)cc1,"inconclusive: 0.164 µM [activator, partial curve]"
16,CCCCn1c(SCC(=O)Nc2ccc3c(c2)OCO3)nc2c1c(=O)n(C)c(=O)n2C,inactive
17,Cc1cc(C)c(OC2(c3ccccc3)OC(=O)c3ccccc32)c(C)c1 (stereo not given),"inconclusive: 20.6 µM [activator, single point]"
18,Cc1ccccc1Cn1nnc2c1C(=O)c1ccccc1C2=O,"inconclusive: 20.6 µM [activator, single point]"
19,COc1ccc(/C=N\NC(=O)C2COc3ccccc3O2)cc1O (stereo not given),inactive
20,CCN(CC)S(=O)(=O)c1cc(C(=O)Nc2nncs2)c(Cl)cc1Cl,"inconclusive: 35.5 µM [activator, single point]"
21,CNc1snc(C)c1C(=O)OCC(=O)c1ccc(OC)c(F)c1,"inconclusive: 0.651 µM [activator, partial curve, poor fit]"
22,CC(C)(C)C1CCc2c(sc3ncn(N)c(=N)c23)C1 (stereo not given),"inconclusive: 16.4 µM [activator, partial curve, poor fit]"
23,CCN1C(=O)N(CC)C(O)(c2ccccc2)C1(O)c1ccccc1 (stereo not given),inactive
24,CC(C)=N/N=C1/NC(=O)C(c2ccccc2)S1 (stereo not given),inactive

row,Structure (SMILES),Potency
1,Cc1nc([N+](=O)[O-])c(Br)n1CC(=O)c1ccc(Br)cc1,"inconclusive: 29.1 µM [activator, single point]"
2,Cc1cc(OCC(=O)N2CCC(C(N)=O)CC2)c2c(C)cc(=O)oc2c1,"inconclusive: 0.13 µM [activator, full curve, poor fit]"
3,C[C@H](NC(=O)c1ccco1)C(=O)Nc1nc(-c2ccccn2)cs1,"inconclusive: 25.9 µM [activator, partial curve, poor fit]"
4,O=C(/C=C/c1ccc(Cl)cc1)c1ccc([N+](=O)[O-])o1,"inconclusive: 4.11 µM [activator, single point]"
5,Cc1ccc(C)c(Cn2nnc3c(=O)[nH]c(C4CCN(C(=O)c5cccs5)CC4)nc32)c1,inactive
6,NC(=O)c1nsc(C(=O)N(c2cccc(F)c2)C(C(=O)NCC2CCCO2)c2cccs2)c1N (stereo not given),"inconclusive: 18.4 µM [activator, single point]"
7,COc1ccccc1C(=O)O/N=C(/c1ccncc1)c1ccc([N+](=O)[O-])cc1,inactive
8,CC1CCN(Cc2c(C(=O)N/N=C/c3cc(Br)ccc3O)nnn2-c2nonc2N)CC1,"inconclusive: 16.4 µM [activator, single point]"
9,COc1cc(C(=O)OC(C)C(=O)Nc2ccc3c(c2)OCCO3)cc(OC)c1OC (stereo not given),"inconclusive: 17.8 µM [activator, single point]"
10,O=C(c1ccccc1F)n1c2c(c3ccccc31)CCCC2,"inconclusive: 29.1 µM [activator, single point]"
11,N#CC(=C(O)COC(=O)CCCNC(=O)c1ccc(Cl)cc1)c1nc2ccccc2[nH]1,"inconclusive: 4.11 µM [activator, partial curve, poor fit]"
12,CC(C)NCC(O)COc1ccc(CC(N)=O)cc1 (stereo not given),"inconclusive: 3.16 µM [activator, single point]"
13,Cc1cc(SCC(=O)N/N=C/c2ccc(C(=O)O)cc2)nc2ccccc12,inactive
14,Cc1ccc(-c2csc(/C=C3/SC(C)C(=O)N3CC(=O)Nc3ccccc3F)n2)cc1 (stereo not given),"inconclusive: 29.1 µM [activator, single point]"
15,Oc1c(CN2CCCC2)cc(COCc2ccccc2)c2cccnc12,"inconclusive: 6.51 µM [activator, single point]"
16,CCCCn1c(N)c(N(CCOC)C(=O)CCCc2nc3ccccc3c(=O)[nH]2)c(=O)[nH]c1=O,active: 23.1 µM
17,COC(=O)c1ccc(-c2c(-c3ccccc3)ncc3cc(F)ccc23)cc1,inactive
18,O=C(COC(=O)c1ccc(O)cc1O)Nc1cccc2ccccc12,"inconclusive: 29.1 µM [activator, single point]"
19,CO/N=C/c1ccc(N2CCN(C(=O)c3cccc(C(F)(F)F)c3)CC2)c([N+](=O)[O-])c1,"inconclusive: 16.4 µM [activator, partial curve, poor fit]"
20,CC(Oc1ccc(C#N)cc1)C(=O)N1CC=C(c2ccccc2)CC1 (stereo not given),"inconclusive: 18.4 µM [activator, single point]"
21,Cc1ccc(NC(=S)N2CCN(S(=O)(=O)c3ccccc3)CC2)cc1C,inactive
22,O=C(COc1ccc(Br)cc1Br)NC1CCS(=O)(=O)C1 (stereo not given),inactive

# Reference: PubChem BioAssay AID624297 (National Center for Advancing Translational Sciences (NCATS), 2012)
